Measured values from patent US20230151437A1, “USE OF PROTEIN ASSEMBLIES TO RECORD CELLULAR EVENTS” (President and Fellows of Harvard College, priority 2021, published 2023).
Several values for one entry are separate records, joined by “and”; a condition that tells them apart may be missing. Identical values can stand only once.

What was measured:
HEK cells [1] = test: HT dye switch fluorescence profiles of HT-iPAK4 assemblies in HEK cells; format: cell-based
Method: To test whether assemblies could encode HT dye timestamps, HEK cells growing HT-iPAK4 assemblies were successively washed with different colors of HT-ligand dyes at Δt=2 h intervals in the sequence JF503, JF669, JFX608, JF503, JF669 (FIG. 2A; see FIGS. 11A-11B for dye structures, photophysical properties, and synthesis of JFX608). The cells were then fixed and imaged with spectrally resolved confocal microscopy. Clear progression of colored bands matching the sequence of dye additions was observed.
To test the limits of how fast dye transitions could be encoded, assemblies were made with seven dye switches at Δt=1 h. At this short interval, peaks were still visible, but their amplitude was suppressed relative to the parts of the assembly with no dye switches, indicating incomplete transitions in dye labeling (FIG. 12E).
A protein ticker tape may stably store its information for extended times. Since the iPAK4 assemblies were held together by non-covalent interactions, it was tested whether monomer exchange blurred the HT dye boundaries over time. Two dishes were exposed to the same sequence of dye switches at intervals of Δt=2 h. One dish was fixed at t=8 h, and the other was returned to the incubator and fixed a day later at t=30 h. The fluorescence profiles for the section of the assemblies that grew concurrently (from t=0 to 8 h) were then compared. The mean profiles were nearly indistinguishable between the early dish (N=22 assemblies) and the late dish (N=12 assemblies) (FIG. 2E). Thus, monomer exchange was negligible over one day.
The precision with which the timing of cellular events could be identified was studied next. […]
Image processing and data analysis: Images of individual assemblies were rotated to align the long axis to the x-axis. Fluorescence profiles were then calculated as the median fluorescence in each spectral channel across the width of the assembly. […] Dye transitions were identified as local maxima in the second derivative of the dye fluorescence as a function of position. […]

HEK cells [2] = test: Time-lapse microscopy of iPAK4 assembly nucleation and growth in HEK cells; format: cell-based
primary neuron culture = test: Time-lapse imaging of iPAK4 assembly growth in primary neuron culture; format: cell-based, rat

B1: iPAK4: fusion of the catalytic domain of the Pak4 kinase and the 38 amino acid iBox domain of its inhibitor Inka1 (SEQ ID NO: 1) (protein)
chain: MDYKDDDDKSGSEAEDWTAALLNRGRSRQPLVLGDNCFADLVHNWMELPEEFPAAPAVPGPPGPRSPQREPQRVSHEQFRAALQLVVDPGDPRSYLDNFIKIGEGSTGIVCIATVRSSGKLVAVKKMDLRKQQRRELLFNEVVIMRDYQHENVVEMYNSYLVGDELWVVMEFLEGGALTDIVTHTRMNEEQIAAVCLAVLQALSVLHAQGVIHRDIKSDSILLTHDGRVKLSDFGFCAQVSKEVPRRKSLVGTPYWMAPELISRLPYGPEVDIWSLGIMVIEMVDGEPPYFNEPPLKAMKMIRDNLPPRLKNLHKVSPSLKGFLDRLLVRDPAQRATAAELLKHPFLAKAGPPASIVPLMRQNRTR
For B1, the “assembly growth rate between timestamps” value (HEK cells [1]; 10 h interval between JF669 and JF525, mean±s.d., N=223) was 1.1±0.58 μm/s, the “growth rate on slower-growing end relative to faster-growing end” value (HEK cells [1]; N=153 assemblies, 95% C.I.) was 0.77±0.05 fold and the “speed of slower-growing end relative to faster end” value (HEK cells [1]; mean±s.d., N=17 assemblies) was 62±19%. The “initial assembly growth rate upon nucleation” value (HEK cells [2]) was about 0.5 μm/min, the “linear-phase assembly growth rate” value (HEK cells [2]) was 1-2 μm/h and 1.46±0.64 μm/h and the “assembly-containing cells with only one assembly” value (HEK cells [2]; 288 of 333 cells) was 86%. The “onset of assembly growth after transfection” value (HEK cells [2]; CMV::iPAK4 (95%) and CMV::HT-iPAK4 (5%)) was 14 to 20 h, the “length of assemblies at the end of the nucleation phase” value (HEK cells [2]; mean±s.d., n=46) was 26±7 μm and the “neurons with assemblies that had only one assembly” value (primary neuron culture) was 73%. For the same molecule, the “growth rate in the linear phase” value (primary neuron culture; neurons) was 2.5±1.5 μm/h and the “assembly length at onset of linear growth” value (primary neuron culture; neurons, mean±s.d., N=22) was 31±12 μm.
